Experimental data as given in patent publication US20130217633A1.
These are yes or no findings as the source states them, for the method shown. Some binding calls cover weakened binding; strength is not graded here.

Biological target: Biotin-BH4-Bcl-2 (biotinylated peptide corresponding to the BH4 domain of Bcl-2)
Experiment: SPR (Biacore 2000), biotinylated peptide on streptavidin chip, GST fusion as analyte

GST-Domain3 (GST fusion of IP3R1 Domain 3, a.a. 923-1581) (from UniProt P08515 1-218; P11881 923-1581)
binding: binds
